Where a name gives a salt, the structure may show the parent alone. The list shows a part of the results. Repeats in this data set agree poorly, so a single value says little.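 FDA-approved drugs were each paired with colistin at one-eighth its MIC and screened against a multidrug-resistant, mcr-1-positive clinical E. coli isolate, with OD600 read after 24 h. Drug-free bacteria served as growth control, plain broth as blank. Combinations were active if OD600 dropped below 0.2.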
System: Escherichia coli 42 (mcr-1-positive clinical isolate)
Assay: OD600 after 24 h growth with compound plus colistin (absorbance units (OD600)); higher = more bacterial growth (less inhibition)
Conditions: first compound 25 µM; colistin concentration 0.5 ug/mL; incubation time 24 h; 37 °C

Row | Compound | OD600
1 | O=C1c2ccccc2C(=O)C1c1ccccc1 [Phenindione] + CCC(C)CCCC(=O)N[C@@H](CCN)C(=O)N[C@H](C(=O)N[C@@H](CCN)C(=O)N[C@H]1CCNC(=O)[C@H]([C@@H](C)O)NC(=O)[C@H](CCN)NC(=O)[C@H](CCN)NC(=O)[C@H](CC(C)C)NC(=O)[C@@H](CC(C)C)NC(=O)[C@H](CCN)NC1=O)[C@@H](C)O [colistin] | inactive: 1.1
2 | Nc1nc2[nH]cc(CCc3ccc(C(=O)N[C@@H](CCC(=O)O)C(=O)O)cc3)c2c(=O)[nH]1 [Pemetrexed disodium] + CCC(C)CCCC(=O)N[C@@H](CCN)C(=O)N[C@H](C(=O)N[C@@H](CCN)C(=O)N[C@H]1CCNC(=O)[C@H]([C@@H](C)O)NC(=O)[C@H](CCN)NC(=O)[C@H](CCN)NC(=O)[C@H](CC(C)C)NC(=O)[C@@H](CC(C)C)NC(=O)[C@H](CCN)NC1=O)[C@@H](C)O [colistin] | inactive: 0.91
3 | Cc1ccc(N(CC2=NCCN2)c2cccc(O)c2)cc1 [Phentolamine mesylate] + CCC(C)CCCC(=O)N[C@@H](CCN)C(=O)N[C@H](C(=O)N[C@@H](CCN)C(=O)N[C@H]1CCNC(=O)[C@H]([C@@H](C)O)NC(=O)[C@H](CCN)NC(=O)[C@H](CCN)NC(=O)[C@H](CC(C)C)NC(=O)[C@@H](CC(C)C)NC(=O)[C@H](CCN)NC1=O)[C@@H](C)O [colistin] | inactive: 1.05
4 | CN[C@H]1CC[C@@H](c2ccc(Cl)c(Cl)c2)c2ccccc21 [Sertraline hydrochloride] + CCC(C)CCCC(=O)N[C@@H](CCN)C(=O)N[C@H](C(=O)N[C@@H](CCN)C(=O)N[C@H]1CCNC(=O)[C@H]([C@@H](C)O)NC(=O)[C@H](CCN)NC(=O)[C@H](CCN)NC(=O)[C@H](CC(C)C)NC(=O)[C@@H](CC(C)C)NC(=O)[C@H](CCN)NC1=O)[C@@H](C)O [colistin] | active: 0.037
5 | CN1CCC(=C2c3ccccc3CCn3c(C=O)cnc32)CC1 [Alcaftadine] + CCC(C)CCCC(=O)N[C@@H](CCN)C(=O)N[C@H](C(=O)N[C@@H](CCN)C(=O)N[C@H]1CCNC(=O)[C@H]([C@@H](C)O)NC(=O)[C@H](CCN)NC(=O)[C@H](CCN)NC(=O)[C@H](CC(C)C)NC(=O)[C@@H](CC(C)C)NC(=O)[C@H](CCN)NC1=O)[C@@H](C)O [colistin] | inactive: 0.955
6 | CNCC[C@@H](Oc1ccccc1C)c1ccccc1 [Atomoxetine hydrochloride] + CCC(C)CCCC(=O)N[C@@H](CCN)C(=O)N[C@H](C(=O)N[C@@H](CCN)C(=O)N[C@H]1CCNC(=O)[C@H]([C@@H](C)O)NC(=O)[C@H](CCN)NC(=O)[C@H](CCN)NC(=O)[C@H](CC(C)C)NC(=O)[C@@H](CC(C)C)NC(=O)[C@H](CCN)NC1=O)[C@@H](C)O [colistin] | inactive: 0.85
7 | N=C1CCCN1Cc1[nH]c(=O)[nH]c(=O)c1Cl [Tipiracil hydrochloride] + CCC(C)CCCC(=O)N[C@@H](CCN)C(=O)N[C@H](C(=O)N[C@@H](CCN)C(=O)N[C@H]1CCNC(=O)[C@H]([C@@H](C)O)NC(=O)[C@H](CCN)NC(=O)[C@H](CCN)NC(=O)[C@H](CC(C)C)NC(=O)[C@@H](CC(C)C)NC(=O)[C@H](CCN)NC1=O)[C@@H](C)O [colistin] | inactive: 1.13
8 | Cc1cc(/C=C/C#N)cc(C)c1Nc1ccnc(Nc2ccc(C#N)cc2)n1 [Rilpivirine] + CCC(C)CCCC(=O)N[C@@H](CCN)C(=O)N[C@H](C(=O)N[C@@H](CCN)C(=O)N[C@H]1CCNC(=O)[C@H]([C@@H](C)O)NC(=O)[C@H](CCN)NC(=O)[C@H](CCN)NC(=O)[C@H](CC(C)C)NC(=O)[C@@H](CC(C)C)NC(=O)[C@H](CCN)NC1=O)[C@@H](C)O [colistin] | inactive: 1.03
9 | Cc1ncc(CO)c(CO)c1O [Pyridoxine] + CCC(C)CCCC(=O)N[C@@H](CCN)C(=O)N[C@H](C(=O)N[C@@H](CCN)C(=O)N[C@H]1CCNC(=O)[C@H]([C@@H](C)O)NC(=O)[C@H](CCN)NC(=O)[C@H](CCN)NC(=O)[C@H](CC(C)C)NC(=O)[C@@H](CC(C)C)NC(=O)[C@H](CCN)NC1=O)[C@@H](C)O [colistin] | inactive: 0.948
10 | CC1(C)O[C@@H]2C[C@H]3[C@@H]4C[C@H](F)C5=CC(=O)C=C[C@]5(C)[C@@]4(F)[C@@H](O)C[C@]3(C)[C@]2(C(=O)CO)O1 [Fluocinolone (Acetonide)] + CCC(C)CCCC(=O)N[C@@H](CCN)C(=O)N[C@H](C(=O)N[C@@H](CCN)C(=O)N[C@H]1CCNC(=O)[C@H]([C@@H](C)O)NC(=O)[C@H](CCN)NC(=O)[C@H](CCN)NC(=O)[C@H](CC(C)C)NC(=O)[C@@H](CC(C)C)NC(=O)[C@H](CCN)NC1=O)[C@@H](C)O [colistin] | inactive: 0.811
11 | C=C1CC[C@H](O)C/C1=C/C=C1\CCC[C@]2(C)[C@@H]([C@H](C)/C=C/[C@H](C)C(C)C)CC[C@@H]12 [Vitamin D2] + CCC(C)CCCC(=O)N[C@@H](CCN)C(=O)N[C@H](C(=O)N[C@@H](CCN)C(=O)N[C@H]1CCNC(=O)[C@H]([C@@H](C)O)NC(=O)[C@H](CCN)NC(=O)[C@H](CCN)NC(=O)[C@H](CC(C)C)NC(=O)[C@@H](CC(C)C)NC(=O)[C@H](CCN)NC1=O)[C@@H](C)O [colistin] | inactive: 1.01
12 | O=c1[nH]c(=O)n([C@H]2C[C@H](O)[C@@H](CO)O2)cc1C(F)(F)F [Trifluridine] + CCC(C)CCCC(=O)N[C@@H](CCN)C(=O)N[C@H](C(=O)N[C@@H](CCN)C(=O)N[C@H]1CCNC(=O)[C@H]([C@@H](C)O)NC(=O)[C@H](CCN)NC(=O)[C@H](CCN)NC(=O)[C@H](CC(C)C)NC(=O)[C@@H](CC(C)C)NC(=O)[C@H](CCN)NC1=O)[C@@H](C)O [colistin] | inactive: 0.769
13 | CC(=O)O[C@]1(C(C)=O)CC[C@H]2[C@@H]3C[C@H](C)C4=CC(=O)CC[C@]4(C)[C@H]3CC[C@@]21C [Medroxyprogesterone Acetate] + CCC(C)CCCC(=O)N[C@@H](CCN)C(=O)N[C@H](C(=O)N[C@@H](CCN)C(=O)N[C@H]1CCNC(=O)[C@H]([C@@H](C)O)NC(=O)[C@H](CCN)NC(=O)[C@H](CCN)NC(=O)[C@H](CC(C)C)NC(=O)[C@@H](CC(C)C)NC(=O)[C@H](CCN)NC1=O)[C@@H](C)O [colistin] | inactive: 1.15
14 | Cn1nnc2c(C(N)=O)ncn2c1=O [Temozolomide] + CCC(C)CCCC(=O)N[C@@H](CCN)C(=O)N[C@H](C(=O)N[C@@H](CCN)C(=O)N[C@H]1CCNC(=O)[C@H]([C@@H](C)O)NC(=O)[C@H](CCN)NC(=O)[C@H](CCN)NC(=O)[C@H](CC(C)C)NC(=O)[C@@H](CC(C)C)NC(=O)[C@H](CCN)NC1=O)[C@@H](C)O [colistin] | inactive: 1.02
15 | COc1ccc2[nH]c([S+]([O-])Cc3ncc(C)c(OC)c3C)nc2c1 (centres undefined) [Omeprazole] + CCC(C)CCCC(=O)N[C@@H](CCN)C(=O)N[C@H](C(=O)N[C@@H](CCN)C(=O)N[C@H]1CCNC(=O)[C@H]([C@@H](C)O)NC(=O)[C@H](CCN)NC(=O)[C@H](CCN)NC(=O)[C@H](CC(C)C)NC(=O)[C@@H](CC(C)C)NC(=O)[C@H](CCN)NC1=O)[C@@H](C)O [colistin] | inactive: 1.12
16 | C[n+]1ccccc1/C=N/O [Pralidoxime Chloride] + CCC(C)CCCC(=O)N[C@@H](CCN)C(=O)N[C@H](C(=O)N[C@@H](CCN)C(=O)N[C@H]1CCNC(=O)[C@H]([C@@H](C)O)NC(=O)[C@H](CCN)NC(=O)[C@H](CCN)NC(=O)[C@H](CC(C)C)NC(=O)[C@@H](CC(C)C)NC(=O)[C@H](CCN)NC1=O)[C@@H](C)O [colistin] | inactive: 1.19
17 | FC(F)(F)c1ccc(CNc2ccc(Cc3c[nH]c4ncc(Cl)cc34)cn2)cn1 [Pexidartinib] + CCC(C)CCCC(=O)N[C@@H](CCN)C(=O)N[C@H](C(=O)N[C@@H](CCN)C(=O)N[C@H]1CCNC(=O)[C@H]([C@@H](C)O)NC(=O)[C@H](CCN)NC(=O)[C@H](CCN)NC(=O)[C@H](CC(C)C)NC(=O)[C@@H](CC(C)C)NC(=O)[C@H](CCN)NC1=O)[C@@H](C)O [colistin] | inactive: 0.977
18 | O=C1c2c(O)ccc(O)c2C(=O)c2c(NCCNCCO)ccc(NCCNCCO)c21 [Mitoxantrone dihydrochloride] + CCC(C)CCCC(=O)N[C@@H](CCN)C(=O)N[C@H](C(=O)N[C@@H](CCN)C(=O)N[C@H]1CCNC(=O)[C@H]([C@@H](C)O)NC(=O)[C@H](CCN)NC(=O)[C@H](CCN)NC(=O)[C@H](CC(C)C)NC(=O)[C@@H](CC(C)C)NC(=O)[C@H](CCN)NC1=O)[C@@H](C)O [colistin] | inactive: 1.01
19 | CNC(=O)c1cc(Oc2ccc(NC(=O)Nc3ccc(Cl)c(C(F)(F)F)c3)c(F)c2)ccn1 [Regorafenib] + CCC(C)CCCC(=O)N[C@@H](CCN)C(=O)N[C@H](C(=O)N[C@@H](CCN)C(=O)N[C@H]1CCNC(=O)[C@H]([C@@H](C)O)NC(=O)[C@H](CCN)NC(=O)[C@H](CCN)NC(=O)[C@H](CC(C)C)NC(=O)[C@@H](CC(C)C)NC(=O)[C@H](CCN)NC1=O)[C@@H](C)O [colistin] | inactive: 1.07

Taken from above.
In OD600, Cc1ncc(CO)c(CO)c1O [Pyridoxine] + CCC(C)CCCC(=O)N[C@@H](CCN)C(=O)N[C@H](C(=O)N[C@@H](CCN)C(=O)N[C@H]1CCNC(=O)[C@H]([C@@H](C)O)NC(=O)[C@H](CCN)NC(=O)[C@H](CCN)NC(=O)[C@H](CC(C)C)NC(=O)[C@@H](CC(C)C)NC(=O)[C@H](CCN)NC1=O)[C@@H](C)O [colistin] shows inactive: 0.948
In OD600, O=c1[nH]c(=O)n([C@H]2C[C@H](O)[C@@H](CO)O2)cc1C(F)(F)F [Trifluridine] + CCC(C)CCCC(=O)N[C@@H](CCN)C(=O)N[C@H](C(=O)N[C@@H](CCN)C(=O)N[C@H]1CCNC(=O)[C@H]([C@@H](C)O)NC(=O)[C@H](CCN)NC(=O)[C@H](CCN)NC(=O)[C@H](CC(C)C)NC(=O)[C@@H](CC(C)C)NC(=O)[C@H](CCN)NC1=O)[C@@H](C)O [colistin] shows inactive: 0.769

— the supplement of paper PMC11546906
